# Reference: US20230234983A1, “SQUALAMINE CRYSTALLINE POLYMORPHS” (Enterin, Inc., priority 2022, published 2023)
# Some of these results come from one statement about several compounds together.
# Assay: Investigation under variable RH levels by DVS and XRPD
# Format: physicochemical
# Experimental: The powder data were collected on D8 Advance diffractometer using Cu Kα1 radiation (1.54056 Å) with germanium monochromator at 30° C. using the SYCOS H-HOT hot humid chamber produced by Ansyco GmbH. The data were collected in the Bragg-Brentano geometry (locked coupled) from 8 to 35θ 2θ on the flat sample holder (without rotation) on solid state LynxEye detector with 0.018θ per step with 1 sec/step scan speed. After reaching demanded humidity the sample was relaxed for 5 minutes before measurement. The sample was optionally measured with 2 seconds per step and in the last measurement at RH 000 the relaxation time was elongated to 30 min.
compound,measurement,value
"CC(C)[C@@H](CC[C@@H](C)[C@H]1CC[C@H]2[C@@H]3[C@H](O)C[C@H]4C[C@@H](NCCCNCCCCN)CC[C@]4(C)[C@H]3CC[C@]12C)OS(=O)(=O)O.O=P(O)(O)O [Form A1, squalamine phosphate]","RH level below which the form starts to release water, converting to an unknown lower degree hydrate (or anhydrous) phase",below 20%
